PubChem BioAssay AID1159584 – Peter MacCallum Cancer Centre, 2016

Screen: 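Genes whose loss is lethal only together with E-cadherin loss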 (primary screen)
System: human MCF10A breast epithelial cells, parental and CDH1-null
Reagents: siRNA against human genes
Measurement: 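ATP luminescence (CellTiter-Glo) viability per line relative to mean mock wells over all plates, and the ratio of CDH1-null to parental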
Direction: CDH1-null / parental viability ratio: higher = CDH1-null cells survive relatively better than parental
The whole screen tested about 18,000 reagents; shown is a random part of them. Further read-outs or replicates are left out here. The record does not give: the amount of reagent, the time to read-out.

ATAD3C (ATPase family AAA domain containing 3C) — CDH1-null / parental viability ratio: 1.03
MAP1B (microtubule associated protein 1B) — CDH1-null / parental viability ratio: 0.78
CCN1 (cellular communication network factor 1) — CDH1-null / parental viability ratio: 0.93
CACNA1F (calcium voltage-gated channel subunit alpha1 F) — CDH1-null / parental viability ratio: 1.35
NPVF (neuropeptide VF precursor) — CDH1-null / parental viability ratio: 0.86
COQ10A (coenzyme Q10A) — CDH1-null / parental viability ratio: 1.03
KCNS1 — CDH1-null / parental viability ratio: 1.1
CACNA1I (calcium voltage-gated channel subunit alpha1 I) — CDH1-null / parental viability ratio: 1.19
BTBD8 (BTB domain containing 8) — CDH1-null / parental viability ratio: 0.93
CYP26B1 (cytochrome P450 family 26 subfamily B member 1) — CDH1-null / parental viability ratio: 0.89
STK38L (serine/threonine kinase 38 like) — CDH1-null / parental viability ratio: 1.01
NOTCH3 (notch receptor 3) — CDH1-null / parental viability ratio: 1.24
CCDC190 (coiled-coil domain containing 190) — CDH1-null / parental viability ratio: 0.96
OXSR1 (oxidative stress responsive kinase 1) — CDH1-null / parental viability ratio: 0.81
CEACAM7 (CEA cell adhesion molecule 7) — CDH1-null / parental viability ratio: 0.87
KDM5A (lysine demethylase 5A) — CDH1-null / parental viability ratio: 0.96
VEGFA (vascular endothelial growth factor A) — CDH1-null / parental viability ratio: 1.1
MFSD6L (major facilitator superfamily domain containing 6 like) — CDH1-null / parental viability ratio: 1.08
ZNF687 (zinc finger protein 687) — CDH1-null / parental viability ratio: 0.88
SLC6A16 — CDH1-null / parental viability ratio: 1.06
TAGLN (transgelin) — CDH1-null / parental viability ratio: 0.98
TAX1BP3 (Tax1 binding protein 3) — CDH1-null / parental viability ratio: 1.38
SET (SET nuclear proto-oncogene) — CDH1-null / parental viability ratio: 1.43
RPP14 (ribonuclease P/MRP subunit p14) — CDH1-null / parental viability ratio: 1.16
ZNF335 (zinc finger protein 335) — CDH1-null / parental viability ratio: 0.95
RCCD1 (RCC1 domain containing 1) — CDH1-null / parental viability ratio: 0.94
PRSS57 (serine protease 57) — CDH1-null / parental viability ratio: 1.1
KLRA1P (killer cell lectin like receptor A1, pseudogene) — CDH1-null / parental viability ratio: 0.9
SNRNP35 (small nuclear ribonucleoprotein U11/U12 subunit 35) — CDH1-null / parental viability ratio: 0.66
COL16A1 (collagen type XVI alpha 1 chain) — CDH1-null / parental viability ratio: 1.05
ALDH18A1 (aldehyde dehydrogenase 18 family member A1) — CDH1-null / parental viability ratio: 0.93
COX10 — CDH1-null / parental viability ratio: 0.83
VRK1 (VRK serine/threonine kinase 1) — CDH1-null / parental viability ratio: 0.96
FBXL4 (F-box and leucine rich repeat protein 4) — CDH1-null / parental viability ratio: 0.86
PROKR2 (prokineticin receptor 2) — CDH1-null / parental viability ratio: 0.84

2 consecutive reagents from above, for reference:
PRSS57 (serine protease 57) — CDH1-null / parental viability ratio: 1.1
KLRA1P (killer cell lectin like receptor A1, pseudogene) — CDH1-null / parental viability ratio: 0.9
